# Experimental data: PubChem BioAssay AID1259254 (NCATS, 2017)
# Purpose: 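Gene knock-downs that lead to re-replication, shown by excess G2 DNA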 (primary screen)
# Cells: human HCT116 colorectal cancer cells
# Reagents: single siRNA against human genes
# Time to read-out: 3 days
# Measured: 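Nuclei stained with Hoechst and imaged; cell-cycle phase assigned by DNA content; G2 share scaled per plate, non-targeting siRNA 0%, GMNN siRNA 100%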
# Reading the numbers: G2 robust z-score and G2 cells, % of GMNN control: higher = more G2 cells, more excess DNA replication
# Active means: 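Active siRNAs have a G2 robust z of 5 or more median absolute deviations over the median, which in these data means about 38% or higher of GMNN control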
# The whole screen tested about 59,000 reagents; below is a random part of them. About 1,550 of them (2.6%) were called active. 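G2 share is only a proxy for re-replication; each gene was hit by three separate siRNAs, and active genes were retested.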 A number with no mark means an inactive call. Reagents against one gene are numbered here. Not all columns of the deposit are shown. Not stated in the record: the amount of reagent.
Gene,siRNA no.,G2 robust z-score,"G2 cells, % of GMNN control"
FGF14 (fibroblast growth factor 14),1,-0.832,-2.89
FGF14 (fibroblast growth factor 14),2,0.158,4.08
FGF14 (fibroblast growth factor 14),3,-1.21,-5.58
STRN (striatin),1,-0.867,-3.13
STRN (striatin),2,4.86,37.2
STRN (striatin),3,-0.3,0.857
RPL34P34 (ribosomal protein L34 pseudogene 34),1,2.34,19.5
RPL34P34 (ribosomal protein L34 pseudogene 34),2,0.34,5.36
RPL34P34 (ribosomal protein L34 pseudogene 34),3,5.41 (active),41.1
OPA1 (OPA1 mitochondrial dynamin like GTPase),1,-1.27,-5.96
OPA1 (OPA1 mitochondrial dynamin like GTPase),2,-0.625,-1.43
OPA1 (OPA1 mitochondrial dynamin like GTPase),3,-0.753,-2.33
MALRD1 (MAM and LDL receptor class A domain containing 1),1,-1.24,-5.77
MALRD1 (MAM and LDL receptor class A domain containing 1),2,-0.661,-1.68
MALRD1 (MAM and LDL receptor class A domain containing 1),3,0.206,4.41
MALRD1 (MAM and LDL receptor class A domain containing 1),4,1.54,13.8
MALRD1 (MAM and LDL receptor class A domain containing 1),5,-0.275,1.03
MALRD1 (MAM and LDL receptor class A domain containing 1),6,0.925,9.48
ISCA1P1 (iron-sulfur cluster assembly 1 pseudogene 1),1,-0.0594,2.55
ISCA1P1 (iron-sulfur cluster assembly 1 pseudogene 1),2,0.0781,3.52
ISCA1P1 (iron-sulfur cluster assembly 1 pseudogene 1),3,-0.603,-1.27
PGM5 (phosphoglucomutase 5),1,-1.2,-5.49
PGM5 (phosphoglucomutase 5),2,-0.0299,2.76
PGM5 (phosphoglucomutase 5),3,-0.667,-1.72
GPR150 (G protein-coupled receptor 150),1,2.72,22.1
GPR150 (G protein-coupled receptor 150),2,0.457,6.18
GPR150 (G protein-coupled receptor 150),3,-0.189,1.64
"MUC15 (mucin 15, cell surface associated)",1,0.292,5.02
"MUC15 (mucin 15, cell surface associated)",2,-0.645,-1.57
"MUC15 (mucin 15, cell surface associated)",3,0.364,5.53
QNG1 (Q-nucleotide N-glycosylase 1),1,-0.572,-1.06
QNG1 (Q-nucleotide N-glycosylase 1),2,-0.359,0.442
QNG1 (Q-nucleotide N-glycosylase 1),3,0.687,7.8
OR4F6 (olfactory receptor family 4 subfamily F member 6),1,4.47,34.4
OR4F6 (olfactory receptor family 4 subfamily F member 6),2,0.432,6.01
OR4F6 (olfactory receptor family 4 subfamily F member 6),3,-1.1,-4.77
USP26 (ubiquitin specific peptidase 26),1,1.2,11.4
USP26 (ubiquitin specific peptidase 26),2,1.77,15.4
USP26 (ubiquitin specific peptidase 26),3,-1.01,-4.11
DMRTB1 (DMRT like family B with proline rich C-terminal 1),1,-0.819,-2.8
DMRTB1 (DMRT like family B with proline rich C-terminal 1),2,-0.105,2.23
DMRTB1 (DMRT like family B with proline rich C-terminal 1),3,6.47 (active),48.5
RBMXL2 (RBMX like 2),1,-1,-4.09
RBMXL2 (RBMX like 2),2,-0.63,-1.46
RBMXL2 (RBMX like 2),3,3.8,29.7
PRKRA,1,5.05 (active),38.5
PRKRA,2,0.64,7.47
PRKRA,3,1.98,16.9
ARIH1 (ariadne RBR E3 ubiquitin protein ligase 1),1,-0.843,-2.96
ARIH1 (ariadne RBR E3 ubiquitin protein ligase 1),2,11 (active),80.5
ARIH1 (ariadne RBR E3 ubiquitin protein ligase 1),3,-0.122,2.11
DDX60 (DExD/H-box helicase 60),1,-0.77,-2.45
DDX60 (DExD/H-box helicase 60),2,-0.364,0.407
DDX60 (DExD/H-box helicase 60),3,-0.611,-1.33
RUFY2 (RUN and FYVE domain containing 2),1,0.0229,3.13
RUFY2 (RUN and FYVE domain containing 2),2,-0.842,-2.96
RUFY2 (RUN and FYVE domain containing 2),3,0.533,6.72

6 successive reagents already listed, quoted:
Gene,siRNA no.,G2 robust z-score,"G2 cells, % of GMNN control"
ARIH1 (ariadne RBR E3 ubiquitin protein ligase 1),3,-0.122,2.11
DDX60 (DExD/H-box helicase 60),1,-0.77,-2.45
DDX60 (DExD/H-box helicase 60),2,-0.364,0.407
DDX60 (DExD/H-box helicase 60),3,-0.611,-1.33
RUFY2 (RUN and FYVE domain containing 2),1,0.0229,3.13
RUFY2 (RUN and FYVE domain containing 2),2,-0.842,-2.96

The list goes on:
Gene,siRNA no.,G2 robust z-score,"G2 cells, % of GMNN control"
PLK2 (polo like kinase 2),1,0.034,3.21
PLK2 (polo like kinase 2),2,-1.03,-4.28
PLK2 (polo like kinase 2),3,0.147,4
PSMB6 (proteasome 20S subunit beta 6),1,0.897,9.28
PSMB6 (proteasome 20S subunit beta 6),2,0.611,7.27
PSMB6 (proteasome 20S subunit beta 6),3,2.37,19.6
AJAP1 (adherens junctions associated protein 1),1,-0.32,0.715
AJAP1 (adherens junctions associated protein 1),2,1.28,12
AJAP1 (adherens junctions associated protein 1),3,-0.739,-2.23
TMEM273 (transmembrane protein 273),1,0.772,8.4
TMEM273 (transmembrane protein 273),2,0.361,5.51
TMEM273 (transmembrane protein 273),3,-0.625,-1.43
SRRD (SRR1 domain containing),1,0.154,4.05
SRRD (SRR1 domain containing),2,1.07,10.5
SRRD (SRR1 domain containing),3,1.31,12.2
GPR27 (G protein-coupled receptor 27),1,-0.151,1.9
GPR27 (G protein-coupled receptor 27),2,-0.745,-2.28
GPR27 (G protein-coupled receptor 27),3,-1.11,-4.82
NKX6-1 (NK6 homeobox 1),1,0.0134,3.06
NKX6-1 (NK6 homeobox 1),2,-0.554,-0.933
NKX6-1 (NK6 homeobox 1),3,0.368,5.56
ZFP2 (ZFP2 zinc finger protein),1,1.89,16.3
ZFP2 (ZFP2 zinc finger protein),2,-0.315,0.748
ZFP2 (ZFP2 zinc finger protein),3,0.328,5.27
COG7 (component of oligomeric golgi complex 7),1,-0.0584,2.56
COG7 (component of oligomeric golgi complex 7),2,-0.369,0.373
COG7 (component of oligomeric golgi complex 7),3,0.0182,3.1
MRGPRX4 (MAS related GPR family member X4),1,-1.12,-4.92
MRGPRX4 (MAS related GPR family member X4),2,0.755,8.28
MRGPRX4 (MAS related GPR family member X4),3,-1.16,-5.18
